Source: paper PMC11154705, “Spatio-temporal control of asymmetric septum positioning during sporulation in Bacillus subtilis” (The Journal of Biological Chemistry, 2024)
Results are given in words; binding and its absence hold for the method and conditions named. Some results given as binding are weak or reduced against the parent protein; the word gives no strength.

Target: T1, DivIVA (B. subtilis) (UniProt P71021)
T1 sequence: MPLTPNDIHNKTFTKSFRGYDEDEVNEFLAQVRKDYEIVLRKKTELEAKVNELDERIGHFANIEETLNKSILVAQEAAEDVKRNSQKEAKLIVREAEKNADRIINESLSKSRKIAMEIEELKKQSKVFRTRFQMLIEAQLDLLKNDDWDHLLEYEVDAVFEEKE
Experiment: two-hybrid; bacterial two-hybrid (BACTH): fusions to adenylate cyclase fragments T18 and T25 cotransformed into E. coli BTH101 (delta cya); spotted on LB plates with X-Gal and 0.5 mM IPTG, 24 to 48 h at 30 °C; beta-galactosidase activity in Miller units

binding: binds
B1: SpoIIE (protein, UniProt P37475 1-827)
chain: MEKAERRVNGPMAGQALEKLQSFFNRGTKLVTHHLHSLFFYKGFIYVVIGFLLGRAFILSEVLPFALPFFGAMLLIRRDKAFYAVLAVLAGALTISPKHSLLILAALLAFFVFSKVAAFITDDRVKALPIVVFFSMAAARAGFVYAQNGVFTTYDYVMAIVEAGLSFILTLIFLQSLPIFTVKKVKQSLKIEEIICFMILIASVLTGLAGLSYQGMQAEHILARYVVLSFSFIGGASIGCTVGVVTGLILGLANIGNLYQMSLLAFSGLLGGLLKEGKKAGAAIGLIVGSLLISLYGEGSAGLMTTLYESLIAVCLFLLTPQSITRKVARYIPGTVEHLQEQQQYARKIRDVTAQKVDQFSNVFHALSESFATFYQASDEQTDDSEVDLFLSKITEHSCQTCYKKNRCWVQNFDKTYDLMKQVMLETEEKEYASNRRLKKEFQQYCSKSKQVEELIEDELAHHHAHLTLKKKVQDSRRLVAEQLLGVSEVMADFSREIKREREQHFLQEEQIIEALQHFGIEIQHVEIYSLEQGNIDIEMTIPFSGHGESEKIIAPMLSDILEEQILVKAEQHSPHPNGYSHVAFGSTKSYRVSTGAAHAAKGGGLVSGDSYSMMELGARKYAAAISDGMGNGARAHFESNETIKLLEKILESGIDEKIAIKTINSILSLRTTDEIYSTLDLSIIDLQDASCKFLKVGSTPSFIKRGDQVMKVQASNLPIGIINEFDVEVVSEQLKAGDLLIMMSDGIFEGPKHVENHDLWMKRKMKGLKTNDPQEIADLLMEEVIRTRSGQIEDDMTVVVVRIDHNTPKWASIPVPAIFQNKQEIS
